{
  "source": "PubChem BioAssay AID540303",
  "about": "(National Center for Advancing Translational Sciences (NCATS), 2011)",
  "note": "The campaign covered roughly 330,000 compounds. About 1,000 (0.3%) were called active. Inconclusive results, whose numbers are uncertain, are shown with a selection of clear calls. Calls follow the shape of the dose curve; as a rule, active = well fitted inhibition curve with a large enough effect; inconclusive = small, poorly fitted or top-dose-only effect; inactive = no such curve, though single readings can be large or run the other way; tested in mouse RAW 264.7 cells. Potencies of inconclusive entries are doubtful fits and often do not repeat. Potency is read from the fitted curve at half-maximal effect.",
  "data": [
    {"assay": "qHTS for Inhibitors of Cell Surface uPA Generation; also: nearly all actives have a fitted effect of over 55% in size", "conditions": "cell surface uPA generation assay; series mostly up to 38.3 µM", "outline": "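Validation set in qHTS format. RAW 264.7 cells were pre-plated overnight and then exposed to compounds (up to 38.3 uM final) for 24 h at 37 C in 5% CO2, followed by a luminescent ATP-Lite measurement.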", "values": [
      {"smiles": "C=CCC[C@H](Cc1ccc(F)cc1)C(=O)O[C@H](CNC(=O)[C@@H](CC=C)CC(=O)N(CCO)Cc1ccccc1)c1ccccc1", "Potency": "inconclusive: 28.2 µM [inhibitor, single point]"},
      {"smiles": "CC1CCN(Cc2cc(=O)oc3cc(O)c(Cl)cc23)CC1", "Potency": "inactive"},
      {"smiles": "CC(C)(C)c1ccc(OCC(=O)Nc2ccncc2)c(Br)c1", "Potency": "inconclusive: 12.6 µM [inhibitor, single point]"},
      {"smiles": "CC(=O)Nc1ccc(-c2csc(N/N=C\\c3ccncc3)n2)cc1", "Potency": "inactive"},
      {"smiles": "Cc1ccc2[nH]c(C(=O)N/N=C/c3ccc([N+](=O)[O-])cc3)c(C)c2c1", "Potency": "inconclusive: 5.01 µM [inhibitor, single point]"},
      {"smiles": "CCOC(=O)c1ccc(N2CCN(C(C)=O)CC2)c(NC(=O)c2cccnc2)c1", "Potency": "inactive"},
      {"smiles": "COc1cc(/C=N/NC(=O)c2ccc3c(c2)OCCO3)cc(Cl)c1O", "Potency": "inconclusive: 31.6 µM [inhibitor, single point]"},
      {"smiles": "COc1cc(-c2noc(C)c2/C=C/c2cccc([N+](=O)[O-])c2)cc(OC)c1OC", "Potency": "active: 0.112 µM"},
      {"smiles": "O=c1oc2ccccc2c(Cl)c1CN1CCCCC1", "Potency": "inconclusive: 12.6 µM [inhibitor, single point]"},
      {"smiles": "CN(C)S(=O)(=O)c1cccc(NC(=O)c2ccc(Sc3nncn3C)c([N+](=O)[O-])c2)c1", "Potency": "inactive"},
      {"smiles": "CN(C(=O)COc1ccccc1)C1CCS(=O)(=O)C1", "note": "(centres undefined)", "Potency": "inconclusive: 3.16 µM [inhibitor, partial curve, poor fit]"},
      {"smiles": "O=C(NC1CCCC1)c1ccc(COc2ccccc2Br)o1", "Potency": "inconclusive: 1.12 µM [inhibitor, single point]"},
      {"smiles": "Cc1ccccc1OCC(=O)N/N=C/c1ccc(N2CCOCC2)o1", "Potency": "inconclusive: 7.08 µM [inhibitor, partial curve, poor fit]"},
      {"smiles": "COC(=O)c1ccc(OCCCCN2CC(C)OC(C)C2)cc1", "note": "(centres undefined)", "Potency": "inactive"},
      {"smiles": "CCN(CC)CCCN=Cc1c(O)n(-c2cccc(C)c2)c(=O)c2ccccc12", "Potency": "inconclusive: 11.2 µM [inhibitor, single point]"},
      {"smiles": "O=C1C(c2ccccc2)=[N+]([O-])c2ccccc21", "Potency": "inconclusive: 12.6 µM [inhibitor, single point]"},
      {"smiles": "Cc1cccc(N(C)c2ncnc3onc(-c4ccc(F)cc4)c23)c1C", "Potency": "inconclusive: 10 µM [inhibitor, single point]"},
      {"smiles": "CCN(CC(=O)NCc1cccs1)CC(=O)Nc1ccc(C(N)=O)cc1", "Potency": "inconclusive: 12.6 µM [inhibitor, single point]"},
      {"smiles": "C[C@H](CO)N1C[C@H](C)[C@@H](CN(C)C(=O)Nc2ccc(C(F)(F)F)cc2)Oc2c(NC(=O)Nc3ccc(C(F)(F)F)cc3)cccc2C1=O", "Potency": "inconclusive: 11.2 µM [inhibitor, single point]"}
    ]}
  ]
}
